Among all 52,000 sequences or so, about 210 (0.4%) were called active.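 How the source made its calls: active means gene whose silencing raises cell survival under the drug, median off-target-corrected z-score across its silencing RNAs 2 or more; inactive means the rest.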 This is one part of the list.

The assay can be described thus: Resistance to Poly (ADP-Ribose) Polymerase inhibitor: Gene Identification via Genome-wide siRNA Screen. The conditions noted are these: mouse BRCA2 R2336H ES cells, olaparib, CellTiter-Glo viability; active compounds read high. The procedure, abridged: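 Mouse BRCA2 R2336H ES cells were reverse-transfected with siRNA (20 nM final), treated at 48 h with 500 nM olaparib, and read by CellTiter-Glo after 72 h. Scores: MAD-based z per siRNA, median per gene, seed off-target correction.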
With “GCAACGGAGGGUCAUUUCATT against 5730509C05Rik”, the z-score was inactive: -0.609.
For the sequence GGAUUUGCUGAUUUGUCAATT against Dufd1, the z-score is inactive: 1.11.
As for GGCAAGGUGUUUUAUAACATT against Flt4, the z-score was inactive: 1.1.
With GGGUAGAAAUGAGAAGUUCTT against Tcf20 the figure was inactive: 0.789; with CCCAAAUAUACCUGUGACATT against Txndc8, inactive: -1.37.
The result for GCCUACAGGAGUGAGAUAATT against Gm1082 reads inactive: -2.62.
The result for GGUGGAAUUCAUCAAGAACTT against Kcnc1 reads inactive: 0.333; that for GGACCUAAAGAUUGUCUUCTT against Stam, inactive: -2.44; that for “GCAGAUCAAAUUUAGCUGATT against D8Ertd594e”, inactive: 0.735.
Regarding “GGGUGGAGAAAAAAUGUACTT against 2410002O22Rik”, the z-score was inactive: -1.06.
As to GGCUGUCAGUGUUUACAGGTT against Srd5a1, the z-score is inactive: 0.555.
The result for GCUAUUGGGUAAUUUGCUUTT against Slco4a1 reads inactive: 1.79.
Turning to CCGAGUCUCUUAGAAUAAUTT against Tcfcp2l1, the z-score is inactive: 1.71.
The result for GCUUAUGGAGUCCCUUGAUTT against Mipep reads inactive: 2.05; that for CCAUUGACACCUUAAAUAUTT against Cnot3, inactive: -1.94; that for GGCGUAAAAUUCAAACUCATT against Cr2, inactive: -1.03.
“GGAGUAGCUCUUCUGGAUCTT against D17Ertd288e”: the z-score was inactive: 0.766.
As to “GGACAACUGGCUUCAGACATT against A330090H18”, the z-score is inactive: -1.76.
On to CGACUUGCUAGGUCAGUGGTT against Echdc3, for which the z-score was inactive: 0.594.
On to GGGAAAUCCUUUCAAGGAGTT against Creb1, for which the z-score is inactive: 0.531.
On to GGUGAAGGUGUCGUACUUUTT against Padi1, for which the z-score was inactive: 0.482.
As for GGUACUCUACAUGCUUAAGTT against Nte, the z-score was inactive: 0.939.
Consider GCCCUUCUUAAAAUCCUGGTT against Itih3, for which the z-score is inactive: -0.151.
The result for GGAAGUGAAAACAAGCAAUTT against Hadhb reads inactive: 0.469; that for GGUCUCGAAUGUAUGGUGCTT against Bicc1, inactive: 0.836.
The result for CCGAGAAAGUAUGCGCAACTT against Mlf1 reads inactive: -0.978.
The result for CCUGGUAGCUUCUUCUCAATT against Krt2-4 reads inactive: 1.24.
Regarding CCUGCUGGGAUUUAUUCAATT against Pmvk, the z-score was inactive: 1.41.
With “GCCAGAUCCCUGGAAUGUATT against 1810009K13Rik” the figure was inactive: -0.942.
